# Library screen at single concentrations

The chains behind the UniProt entries cited, without tags or fusion partners. Residues count along the entry.
UniProt Q4DA54, 1-478: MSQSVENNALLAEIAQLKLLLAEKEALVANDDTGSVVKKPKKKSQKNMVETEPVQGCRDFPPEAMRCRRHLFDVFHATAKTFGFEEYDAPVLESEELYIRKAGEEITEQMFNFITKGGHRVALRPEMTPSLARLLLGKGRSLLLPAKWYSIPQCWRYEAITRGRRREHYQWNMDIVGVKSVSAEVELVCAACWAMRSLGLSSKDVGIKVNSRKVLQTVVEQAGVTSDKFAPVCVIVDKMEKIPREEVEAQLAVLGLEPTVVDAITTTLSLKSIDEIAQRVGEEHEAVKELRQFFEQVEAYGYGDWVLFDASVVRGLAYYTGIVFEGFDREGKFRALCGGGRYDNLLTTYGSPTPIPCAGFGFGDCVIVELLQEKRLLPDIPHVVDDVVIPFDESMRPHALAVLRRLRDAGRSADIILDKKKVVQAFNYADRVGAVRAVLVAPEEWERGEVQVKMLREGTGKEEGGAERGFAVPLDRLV
UniProt P9WPC5, whole entry: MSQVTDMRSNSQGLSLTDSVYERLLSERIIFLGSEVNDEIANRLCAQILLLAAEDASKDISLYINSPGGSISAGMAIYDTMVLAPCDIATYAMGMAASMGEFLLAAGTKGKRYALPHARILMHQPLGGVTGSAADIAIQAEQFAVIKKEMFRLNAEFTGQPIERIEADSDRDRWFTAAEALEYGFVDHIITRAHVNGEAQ
UniProt P9WPC3, whole entry partner: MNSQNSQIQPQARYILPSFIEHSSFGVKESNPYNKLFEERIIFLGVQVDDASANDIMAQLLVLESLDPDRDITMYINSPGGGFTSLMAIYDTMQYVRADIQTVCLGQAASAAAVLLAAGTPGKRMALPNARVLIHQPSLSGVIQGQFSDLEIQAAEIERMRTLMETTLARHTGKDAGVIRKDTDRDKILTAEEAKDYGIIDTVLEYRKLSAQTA
UniProt Q8IDJ8, 1-583: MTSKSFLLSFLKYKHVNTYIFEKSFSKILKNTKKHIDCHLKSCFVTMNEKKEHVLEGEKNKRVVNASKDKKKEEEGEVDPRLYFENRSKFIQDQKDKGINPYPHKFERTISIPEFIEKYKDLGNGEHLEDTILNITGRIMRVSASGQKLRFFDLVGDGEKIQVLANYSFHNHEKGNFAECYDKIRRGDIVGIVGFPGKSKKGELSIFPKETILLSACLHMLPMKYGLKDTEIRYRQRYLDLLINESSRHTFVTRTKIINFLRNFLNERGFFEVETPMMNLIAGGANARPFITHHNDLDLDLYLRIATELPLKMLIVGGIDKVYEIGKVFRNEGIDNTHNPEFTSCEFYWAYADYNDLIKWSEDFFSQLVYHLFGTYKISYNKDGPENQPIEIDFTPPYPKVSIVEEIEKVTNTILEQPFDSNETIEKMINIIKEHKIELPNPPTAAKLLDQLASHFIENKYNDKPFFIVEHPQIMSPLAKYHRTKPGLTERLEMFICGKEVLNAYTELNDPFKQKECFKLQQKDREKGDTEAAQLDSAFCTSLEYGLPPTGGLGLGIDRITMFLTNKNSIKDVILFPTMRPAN
UniProt A4I591, 1-473: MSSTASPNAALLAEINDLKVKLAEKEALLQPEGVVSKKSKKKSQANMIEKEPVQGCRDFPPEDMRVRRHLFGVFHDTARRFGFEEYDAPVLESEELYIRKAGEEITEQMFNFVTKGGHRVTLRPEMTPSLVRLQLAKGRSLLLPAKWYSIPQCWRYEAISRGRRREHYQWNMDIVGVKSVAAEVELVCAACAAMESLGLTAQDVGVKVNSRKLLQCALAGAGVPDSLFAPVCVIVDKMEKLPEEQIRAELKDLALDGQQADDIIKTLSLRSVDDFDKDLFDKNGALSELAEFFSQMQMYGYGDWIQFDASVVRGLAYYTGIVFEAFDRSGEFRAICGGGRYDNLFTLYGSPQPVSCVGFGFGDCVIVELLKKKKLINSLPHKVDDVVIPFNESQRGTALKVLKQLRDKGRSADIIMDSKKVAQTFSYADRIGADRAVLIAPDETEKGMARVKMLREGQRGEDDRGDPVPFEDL

TcHisRS: 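Enzyme assay of histidyl-tRNA synthetase; the read-out is not stated. Target: Histidine-tRNA ligase, Trypanosoma cruzi CL Brener (UniProt Q4DA54). Concentration: 30 µM. The record gives no direction; compounds that gave an IC50 in retests scored well above the rest, so higher reads as stronger inhibition. Size under these conditions: about 69,000 compounds, about 31 of them at 50% or above in at least one test.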
ClpP1P2: 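Protease assay of ClpP1P2, read by the AMC dye that it sets free. Target: ClpP1P2, Mycobacterium tuberculosis (UniProt P9WPC5 and UniProt P9WPC3). Compounds at 50 µM. Higher reads as stronger inhibition, judged from the few compounds that gave an IC50. Most other retested compounds had strongly negative values. Size under these conditions: about 69,000 compounds, about 10 of them at 50% or above in at least one test.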
PfKRS1: 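Lysine-tRNA ligase, Plasmodium falciparum 3D7 (UniProt Q8IDJ8). Enzyme assay of the cytosolic lysyl-tRNA synthetase in 384-well plates, read by luminescence. Tested at 30 µM. Direction is inferred from only a few compounds that gave an IC50; most scored high, so higher reads as stronger inhibition. About 69,000 compounds were tested under these conditions; 0.071% (about 49) showed 50% or more at least once.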
LiHisRS: 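Enzyme assay of histidyl-tRNA synthetase; the read-out is not stated. Target: Histidine-tRNA ligase, Leishmania infantum (UniProt A4I591). Compounds at 30 µM. Direction is inferred from retests: higher values go with stronger inhibition. The assay is labelled LdHisRS but filed under L. infantum. Size under these conditions: about 69,000 compounds, about 410 of them at 50% or above in at least one test.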

Each number is a percent effect as filed. How 0% and 100% were set is not recorded. Most values in the screen are low, and negative values occur. This is an unselected part of the compounds tested.

With COCc1cn(CC2CCN(Cc3nc(C)c[nH]3)CC2)nn1 the screen gave TcHisRS: 8.458%; ClpP1P2: -9.54%; PfKRS1: -1.025%; LiHisRS: 16.78%.
With Cc1ccccc1N1CCCN(C(=O)CCCS(N)(=O)=O)CC1 the screen gave TcHisRS: 4.132%; ClpP1P2: 9.647%; PfKRS1: -1.263%; LiHisRS: 1.923%.
With CCOCCNS(=O)(=O)c1cc(C)c2nc(O)cc(C)c2c1 the screen gave TcHisRS: 8.911%; ClpP1P2: 23.96%; PfKRS1: -3.675%; LiHisRS: 9.524%.
With CC1CCCN(Cc2ccc(CNC(=O)NCc3ccncc3)cc2)C1 (stereo not shown) the screen gave TcHisRS: 6.548%; ClpP1P2: -10.21%; PfKRS1: 3.787%; LiHisRS: 18.28%.
With O=c1ccc(-c2cccs2)nn1CN1CCOC(c2ccccc2)C1 (stereo not shown) the screen gave TcHisRS: 1.754%; ClpP1P2: -4.544%; PfKRS1: 7.443%; LiHisRS: 13.16%.
With O=C(Cc1cccnc1)N1CCC2(CCN(C3CCOC3)CC2)C1 (stereo not shown) the screen gave TcHisRS: -5.941%; ClpP1P2: 2.855%; PfKRS1: -0.3744%; LiHisRS: -28.77%.
With CC(=O)Nc1ccc(/C=C/c2ncc(C(=O)O)s2)cc1 the screen gave TcHisRS: 4.372%; ClpP1P2: 16.43%; PfKRS1: 1.099%; LiHisRS: 32.88%.
With CC(NC(=O)CCCn1cnc2ccccc2c1=O)c1ncn[nH]1 (stereo not shown) the screen gave TcHisRS: 6.931%; ClpP1P2: 4.189%; PfKRS1: -0.389%; LiHisRS: 20.88%.
With CC(=O)NCCCSC1CCCN(c2ccccc2F)C1=O (stereo not shown) the screen gave TcHisRS: 0.6024%; ClpP1P2: -9.896%; PfKRS1: -1.696%; LiHisRS: 0%.
With O=S1(=O)N(c2ccccc2)C[C@H](O)[C@]12CCNC2 the screen gave TcHisRS: -2.312%; ClpP1P2: -3.831%; PfKRS1: 2.74%; LiHisRS: 18.56%.
With Cn1cc(C(=O)N2CCCC2c2[nH]ncc2C(N)=O)cn1 (stereo not shown) the screen gave TcHisRS: 3.731%; ClpP1P2: -10.62%; PfKRS1: -0.0384%; LiHisRS: 1.053%.
With O=C1N(Cc2cccnc2)C[C@H]2CN(S(=O)(=O)c3ccccc3)CCN12 the screen gave TcHisRS: 2.488%; ClpP1P2: -11.86%; PfKRS1: 6.563%; LiHisRS: 13.51%.
With O=C(Cc1ccccn1)N1CCC2(CC1)CN(c1ncccn1)CCO2 the screen gave TcHisRS: 13.27%; ClpP1P2: 12.06%; PfKRS1: 0.4716%; LiHisRS: 21%.
With O=C(c1ccsc1)N1C[C@@H]2CCN(C(=O)c3cscn3)[C@@H]2C1 the screen gave TcHisRS: 4.444%; ClpP1P2: -1.821%; PfKRS1: 4.397%; LiHisRS: 3.774%.
With CC(C)c1noc(C(C)N2CCN(Cc3cccnc3)CC2)n1 (stereo not shown) the screen gave TcHisRS: 1.156%; ClpP1P2: 12.95%; PfKRS1: -0.5556%; LiHisRS: 13.16%.
With OCCOc1ccc(NCc2cccnc2)cn1 the screen gave TcHisRS: 3.896%; ClpP1P2: -1.372%; PfKRS1: 0.8437%; LiHisRS: 3.333%.
With CCc1nnsc1C(=O)N(C)Cc1ccco1 the screen gave TcHisRS: 2.809%; ClpP1P2: 4.355%; PfKRS1: 4.257%; LiHisRS: 23.08%.
With CNC(=O)CNC(=O)Nc1cc(-c2ccccc2)ns1 the screen gave TcHisRS: 0%; ClpP1P2: -13.41%; PfKRS1: 1.062%; LiHisRS: 12.5%.
With CCCn1ccc(C(=O)N2CCC(C)CC2)n1 the screen gave TcHisRS: 1.674%; ClpP1P2: -5.103%; PfKRS1: 1.97%; LiHisRS: 17.92%.
With CSc1ccc(-n2ccnc2-c2cc3n(n2)CCNC3)cc1 the screen gave TcHisRS: 7.595%; ClpP1P2: 3.533%; PfKRS1: -0.02376%; LiHisRS: 14.58%.
With O=C(C1CCOC1)N1CCC2(CCCNC2)CC1 (stereo not shown) the screen gave TcHisRS: -2.913%; ClpP1P2: 5.406%; PfKRS1: 4.07%; LiHisRS: -13.46%.
With CC(C)N1CC(C(=O)N2CCC(Oc3ccccc3Cl)CC2)CC1=O (stereo not shown) the screen gave TcHisRS: 6.122%; ClpP1P2: -26.77%; PfKRS1: 1.066%; LiHisRS: 16.13%.
With Cc1cc(N2CCN(c3ccc(=O)[nH]n3)CC2)nc(-c2ccncc2)n1 the screen gave TcHisRS: -16%; ClpP1P2: -1.215%; PfKRS1: -1.903%; LiHisRS: 32.88%.
With COCC(=O)N1CCC(c2nc3ccc(N4CCCC4)cn3n2)CC1 the screen gave TcHisRS: -14.88%; ClpP1P2: -8.407%; PfKRS1: -9.433%; LiHisRS: 13.33%.
With COc1ccc(F)c(CN2CCCC(c3cc(O)nc(C)n3)C2)c1 (stereo not shown) the screen gave TcHisRS: 4.523%; ClpP1P2: 2.137%; PfKRS1: 3.756%; LiHisRS: 17.98%.
With Cc1nc(CN2CCCC2c2c(C)nn(C)c2Cl)oc1C (stereo not shown) the screen gave TcHisRS: 1.734%; ClpP1P2: 4.272%; PfKRS1: -1.005%; LiHisRS: 6.14%.
With Cc1noc(C)c1CNc1cccc(C(=O)N(C)c2ccccc2)c1 the screen gave TcHisRS: 8.889%; ClpP1P2: -3.835%; PfKRS1: -5.153%; LiHisRS: -0.8547%.
With CC(=O)N1CCC(N[C@@H]2CO[C@H](CNC(=O)C3CCCC3)[C@H]2O)CC1 the screen gave TcHisRS: 3.261%; ClpP1P2: -4.531%; PfKRS1: -1.337%; LiHisRS: 20.27%.
With CC(C1CC1)n1nccc1NC(=O)CN(C)C(=O)OC(C)(C)C (stereo not shown) the screen gave TcHisRS: 13.1%; ClpP1P2: -6.576%; PfKRS1: -0.6617%; LiHisRS: 15.56%.
With CC(C)N1CC2(CCC1=O)CCN(c1ccnc3ccccc13)CC2 the screen gave TcHisRS: 3.863%; ClpP1P2: 2.555%; PfKRS1: 5.11%; LiHisRS: 18.03%.
With CN1CCN(C[C@@H]2OC[C@H]3CN(Cc4ccsc4)CC[C@H]32)CC1 the screen gave TcHisRS: 4.865%; ClpP1P2: 3.338%; PfKRS1: -1.305%; LiHisRS: 9.434%.
With COc1cc(CNCC2CN(C3CC3)CCO2)cc(OC)c1 (stereo not shown) the screen gave TcHisRS: 1.98%; ClpP1P2: -11.99%; PfKRS1: -0.2758%; LiHisRS: 18.48%.
With COc1ccc(C(=O)N2CC(=O)N(C3CCC3)CC(O)C2)cc1OC (stereo not shown) the screen gave TcHisRS: 14.61%; ClpP1P2: -1.844%; PfKRS1: 6.356%; LiHisRS: 20.41%.
With CCc1nc(C2CCCN2C(=O)CCc2cccs2)no1 (stereo not shown) the screen gave TcHisRS: 2.682%; ClpP1P2: -3.388%; PfKRS1: 1.32%; LiHisRS: -6.154%.

The last 3 entries again:

{"smiles": "COc1cc(CNCC2CN(C3CC3)CCO2)cc(OC)c1", "stereo": "stereo not shown", "TcHisRS": 1.98, "ClpP1P2": -11.99, "PfKRS1": -0.2758, "LiHisRS": 18.48}
{"smiles": "COc1ccc(C(=O)N2CC(=O)N(C3CCC3)CC(O)C2)cc1OC", "stereo": "stereo not shown", "TcHisRS": 14.61, "ClpP1P2": -1.844, "PfKRS1": 6.356, "LiHisRS": 20.41}
{"smiles": "CCc1nc(C2CCCN2C(=O)CCc2cccs2)no1", "stereo": "stereo not shown", "TcHisRS": 2.682, "ClpP1P2": -3.388, "PfKRS1": 1.32, "LiHisRS": -6.154}

Measurements from “University of Dundee, Small-Polar-MMV Screening Library” (2021), ChEMBL document CHEMBL3988442.